This is an account of results in article PMC6453981.

Amino acid sequences for entries named in this document (tags omitted). Residues count along the entry.
UniProt P35968, residues 20-1356: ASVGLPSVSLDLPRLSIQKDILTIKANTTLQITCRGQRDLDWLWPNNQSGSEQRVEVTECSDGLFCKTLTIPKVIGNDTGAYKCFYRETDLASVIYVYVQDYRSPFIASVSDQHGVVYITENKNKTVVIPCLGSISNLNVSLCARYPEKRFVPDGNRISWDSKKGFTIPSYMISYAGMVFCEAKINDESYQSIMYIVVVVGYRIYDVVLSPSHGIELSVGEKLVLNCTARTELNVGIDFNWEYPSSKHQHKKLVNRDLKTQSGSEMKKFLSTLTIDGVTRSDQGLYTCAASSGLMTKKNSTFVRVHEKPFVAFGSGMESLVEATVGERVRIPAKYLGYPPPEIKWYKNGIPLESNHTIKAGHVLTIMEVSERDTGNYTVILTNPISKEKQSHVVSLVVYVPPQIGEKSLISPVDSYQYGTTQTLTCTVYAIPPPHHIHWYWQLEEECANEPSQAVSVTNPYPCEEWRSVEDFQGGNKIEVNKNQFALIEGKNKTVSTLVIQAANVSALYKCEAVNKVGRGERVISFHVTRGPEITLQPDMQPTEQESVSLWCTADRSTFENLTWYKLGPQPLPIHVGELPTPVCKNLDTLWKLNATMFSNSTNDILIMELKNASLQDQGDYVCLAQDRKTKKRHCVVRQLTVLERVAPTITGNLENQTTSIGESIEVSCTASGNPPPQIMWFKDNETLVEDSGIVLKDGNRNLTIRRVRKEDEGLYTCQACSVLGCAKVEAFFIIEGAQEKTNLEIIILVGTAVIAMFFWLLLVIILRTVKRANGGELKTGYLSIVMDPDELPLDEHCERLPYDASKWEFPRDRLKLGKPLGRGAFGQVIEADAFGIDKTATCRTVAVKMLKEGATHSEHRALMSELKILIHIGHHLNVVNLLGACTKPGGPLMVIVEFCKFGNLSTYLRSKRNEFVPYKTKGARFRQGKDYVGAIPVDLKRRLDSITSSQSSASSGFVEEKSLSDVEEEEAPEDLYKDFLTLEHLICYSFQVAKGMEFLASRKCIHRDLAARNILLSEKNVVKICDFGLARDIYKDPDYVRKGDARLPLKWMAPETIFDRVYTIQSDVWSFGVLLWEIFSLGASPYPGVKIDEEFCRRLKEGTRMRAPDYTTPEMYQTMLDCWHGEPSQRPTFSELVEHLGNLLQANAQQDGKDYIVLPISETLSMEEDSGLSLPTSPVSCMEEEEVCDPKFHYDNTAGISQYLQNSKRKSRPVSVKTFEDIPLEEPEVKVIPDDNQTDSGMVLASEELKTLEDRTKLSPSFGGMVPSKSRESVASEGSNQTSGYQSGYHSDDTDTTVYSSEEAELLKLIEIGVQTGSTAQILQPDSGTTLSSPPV
UniProt O76054: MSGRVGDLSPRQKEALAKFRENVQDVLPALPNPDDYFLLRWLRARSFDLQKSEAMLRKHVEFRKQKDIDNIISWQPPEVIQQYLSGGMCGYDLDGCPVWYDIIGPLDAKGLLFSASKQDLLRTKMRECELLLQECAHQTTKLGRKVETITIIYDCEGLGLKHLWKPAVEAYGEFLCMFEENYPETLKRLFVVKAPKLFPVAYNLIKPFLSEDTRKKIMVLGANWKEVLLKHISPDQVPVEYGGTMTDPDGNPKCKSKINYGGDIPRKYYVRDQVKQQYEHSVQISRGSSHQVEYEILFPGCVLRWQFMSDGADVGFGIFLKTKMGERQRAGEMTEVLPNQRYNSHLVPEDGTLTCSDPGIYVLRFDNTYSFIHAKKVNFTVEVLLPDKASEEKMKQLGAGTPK

The target in this test is endogenous VEGFR2 (human (endogenous in HUVECs)) (UniProt P35968). As to the kind of experiment: co-IP; endogenous proteins in HUVECs; for VEGFR2 cells starved and stimulated with 100 ng/ml VEGFa for 5 min; IgG as negative control; TNE buffer.

No constants are given. Whether binding was seen depends on the method and setting. In cells and extracts the contact can be indirect. Some entries that bind do so weakly or less than the wild type.

On to “endogenous SEC14L2 (from UniProt O76054 1-403)”, for which the binding result is listed as “binds”.
